Assay results published in PubChem BioAssay AID445 (National Center for Advancing Translational Sciences (NCATS), 2006).
The list shows a part of the results. Further columns of the screen follow, without active or inactive calls. Most of these compounds were active or inconclusive in the main read-out, so they are no random draw. Potencies come from curve fits of mixed quality, noted in brackets.

Test: IkB Signaling
Conditions: ABC-DLBCL IkBa-CBG/CBR dual luciferase ratio (green luciferase fused to IkBa over red control in OCI-Ly3 lymphoma cells), 4 h
Summary of the method: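 Curves were fitted separately to fusion (green), unfused (red) and ratio luminescence, then classed by r2, magnitude and activity. Cells: OCI-Ly3, 4 h compound plus doxycycline at 37C; 10 uM MG-132 defined full response.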

[1] = measured here: control luc red channel unless noted
[2] = measured here: IkB-luc green channel
[3] = measured here: control luc red channel

COc1ccc(Cn2nnc3c(=O)[nH]c(C4CCCN(C(=O)c5ccccc5Cl)C4)nc32)cc1OC (stereo not drawn)
AC50 [1]: 3.16 µM [rising, partial curve]

O=C(Nc1ccc2c(c1)N(C1CCCC1)C(=O)c1ccccc1S2)c1ccccc1
AC50 [1]: 5.01 µM [falling, partial curve, poor fit]

COc1ccc(CCNC(=O)C(=O)NCC(c2cccs2)S(=O)(=O)c2ccccc2)cc1 (stereo not drawn)
AC50 [1]: 2.51 µM [rising, partial curve] [measured here: IkB-luc green channel]

Cc1cccc(-c2noc(CN(C(C)C)S(=O)(=O)c3ccc(F)cc3)n2)c1
AC50 [1]: 25.1 µM [falling, partial curve]

CC(=O)Nc1ccc(S(=O)(=O)N2CCN(CCCOc3cc(C)ccc3C)CC2)cc1
AC50 [1]: 12.6 µM [falling, partial curve]

O=C(Cn1cnc2c(cnn2-c2ccccc2)c1=O)N1CCCc2ccccc21
AC50 [1]: 25.1 µM [falling, single point]

CCCOc1ccc(-c2nnn(CC(=O)c3ccc4c(c3)OCCO4)n2)cc1
AC50 [1]: 39.8 µM [falling, partial curve]

O=C(Cn1cc(SCc2ccccc2Cl)c2ccccc21)N1CCCCCC1
AC50 [1]: 10 µM [falling, partial curve]

COc1ccc(OC)c(CNS(=O)(=O)c2ccc(-c3cc(C(F)(F)F)on3)s2)c1
AC50 [1]: 31.6 µM [falling, partial curve]

CCC1CN(C(=O)NCc2ccc(F)cc2)c2ccccc2O1 (stereo not drawn)
AC50 [1]: 10 µM [falling, partial curve]

COc1ccc(-n2c(=O)c3c4c(sc3n(Cc3cc(=O)n5c(C)cccc5n3)c2=O)CCC4)c(OC)c1
AC50 [1]: 39.8 µM [falling, single point]

Cc1ccc(Cn2c(=O)c3ccccc3n3c(-c4ccccc4)nnc23)cc1
AC50 [1]: 0.0794 µM [rising, full curve]

O=C(CN1CCSCC1)N1CCc2[nH]c3ccc(Br)cc3c2C1
AC50 [1]: 12.6 µM [falling, partial curve]

CCc1ccc(CNC(=O)CSCc2cnn(-c3ccccc3)c2-n2cccc2)cc1
AC50 [1]: 25.1 µM [falling, partial curve]

Cc1ccc(OCC(=O)Nc2ccc3nc(SCC(=O)N4CCCC4)sc3c2)cc1C
AC50 [1]: 15.8 µM [falling, partial curve]

COc1ccc(NC(=O)CCCS(=O)(=O)c2nc(-c3ccc(OC)c(OC)c3)cc(C(F)(F)F)n2)cc1OC
AC50 [2]: 6.31 µM [rising, single point]
AC50 [3]: 10 µM [falling, partial curve]

COc1ccc(Nc2nnc(-c3ccc(C)c(S(=O)(=O)N4CCOCC4)c3)c3ccccc23)cc1
AC50 [1]: 1.58 µM [falling, full curve]

COc1ccccc1N1CCN(C(=O)CSc2nc(-c3ccc(C(C)C)cc3)no2)CC1
AC50 [1]: 31.6 µM [falling, single point]

CCCCNC(=O)CSc1nc2n[nH]c(C)c2c(=N)n1-c1ccccc1CC
AC50 [1]: 39.8 µM [falling, single point]

COc1ccc(C2CC(=O)c3c([nH]c(C(=O)OCc4ccccc4)c3C)C2)cc1OC (stereo not drawn)
AC50 [1]: 1 µM [falling, full curve, poor fit]

O=C(COc1ccccc1F)Nc1nnc(S(=O)(=O)N2CCCCCC2)s1
AC50 [1]: 2 µM [rising, full curve]

O=C(NCCCN1CCN(c2ccccc2)CC1)c1cc2c(s1)-c1ccccc1OC2
AC50 [1]: 25.1 µM [falling, partial curve]

Cc1ccccc1Cc1c(C)nc2nc(SCC(=O)NC(C)c3ccccc3)nn2c1C (stereo not drawn)
AC50 [1]: 20 µM [falling, partial curve]

COC(=O)C1=C(C(=O)c2ccccc2)C(c2ccc(OC)c(OC)c2)Nc2nnnn21 (stereo not drawn)
AC50 [1]: 0.794 µM [rising, full curve]

CCC1CN(C(=O)Nc2cccc3c2CCCC3)c2cc(C)ccc2O1 (stereo not drawn)
AC50 [1]: 12.6 µM [falling, partial curve]

Cc1ccc(CNC(=O)CN(c2cc(C)cc(C)c2)S(=O)(=O)c2c(C)[nH]c(=O)[nH]c2=O)cc1
AC50 [1]: 0.0158 µM [falling, full curve]

CCOc1ccc(-c2ccc(CO)o2)cc1N
AC50 [1]: 2.51 µM [rising, partial curve]

CCc1cccc(NC(=O)CCS(=O)(=O)c2ccc(C)cc2)c1
AC50 [1]: 39.8 µM [falling, single point]

O=C(NC1CCCC1)c1ccc2c(c1)N(Cc1ccc(F)cc1)C(=O)c1ccccc1S2
AC50 [1]: 25.1 µM [falling, single point]

COc1ccc(NC(=O)C(Cc2ccccc2)n2cccc2)c(OC)c1 (stereo not drawn)
AC50 [1]: 25.1 µM [falling, single point]

CC(C)CCNC(=O)CSc1nc2ccsc2c(=O)n1Cc1ccccc1Cl
AC50 [1]: 1 µM [rising, partial curve]

COc1ccc(-c2noc(-c3ccccc3NC(=O)c3cc(OC)c(OC)c(OC)c3)n2)cc1
AC50 [1]: 25.1 µM [falling, single point]

CCCCC12CN3CC(C)(CN(C1)C3c1c(C)[nH]c(=O)[nH]c1=O)C2=O (stereo not drawn)
AC50 [1]: 1.58 µM [rising, full curve]

CCOc1ccc(NC(=O)CN2C(=O)C(c3ccccc3)=NC23CCCCCC3)cc1
AC50 [1]: 15.8 µM [falling, partial curve]

Cc1cccc(Cn2c(C)c(C)c3cc(C(=O)NCc4ccc(C)o4)ccc32)c1
AC50 [1]: 10 µM [falling, partial curve]

CCOc1ccc(CCNC(=O)c2cc3c(-c4cccc(OC)c4)nn(C)c3s2)cc1OCC
AC50 [1]: 5.01 µM [falling, full curve]

Cc1cccc(C(CC(=O)NCC2(c3ccccc3)CCCC2)c2ccccc2)c1O (stereo not drawn)
AC50 [1]: 7.94 µM [falling, partial curve]

CN(c1ccc(Cl)cc1)c1cc(=O)n(C)c2ccccc12
AC50 [1]: 15.8 µM [falling, partial curve]

COc1cccc(NC(=O)COc2ccccc2C(N)=O)c1
AC50 [1]: 12.6 µM [falling, partial curve]

Cc1nc2nc(SCC(=O)NC(C)c3ccccc3)nn2c(C)c1Cc1c(F)cccc1Cl (stereo not drawn)
AC50 [1]: 15.8 µM [falling, partial curve]

Cc1ccc(S(=O)(=O)N2CCN(C(=O)CSc3nc4ccccc4c(=O)[nH]3)CC2)cc1
AC50 [1]: 31.6 µM [falling, single point]

COC(=O)c1ccc(NC(=O)CC2C(=O)N(c3cccc(OC)c3)C(=O)N2Cc2cccc(OC)c2)cc1 (stereo not drawn)
AC50 [1]: 12.6 µM [falling, partial curve]

CCOc1ccc2nc(N3CCCN(C(=O)Nc4ccccc4C)CC3)c(C#N)cc2c1
AC50 [1]: 15.8 µM [falling, partial curve]

Cc1cccc(C(=O)Nc2ccc(N3CCC(CCN4CCOCC4)CC3)c(C(=O)O)c2)c1
AC50 [1]: 3.98 µM [rising, partial curve]

CCOC(=O)Cc1[nH]nc2c1C(C1C=CCCC1)C(C#N)=C(N)O2 (stereo not drawn)
AC50 [1]: 7.94 µM [falling, partial curve]

O=C(Nc1ccc(S(=O)(=O)N2CCC(c3nc4ccccc4s3)CC2)cc1)c1ccccc1F
AC50 [1]: 15.8 µM [falling, partial curve]

CCOC(=O)Cc1csc(NC(=O)CSc2nnnn2-c2ccc(CC)cc2)n1
AC50 [1]: 25.1 µM [falling, partial curve]

COc1ccc(-c2nnc(SC(=O)N3c4ccccc4Sc4ccccc43)o2)cc1
AC50 [1]: 2.51 µM [falling, full curve, poor fit]

Cc1csc(NC(=O)C(Cc2ccccc2)n2cccc2)n1 (stereo not drawn)
AC50 [1]: 12.6 µM [falling, partial curve]

CCCCCOc1ccc(C(=O)N(Cc2ccccc2)C2CCS(=O)(=O)C2)cc1 (stereo not drawn)
AC50 [1]: 25.1 µM [falling, partial curve]

N#Cc1cccc(NC(=O)NCCc2c[nH]c3ccccc23)c1
AC50 [1]: 15.8 µM [falling, partial curve]

Cc1ccc2nc(/C(C#N)=C/c3ccc(-c4cccc(Cl)c4)o3)[nH]c2c1
AC50 [1]: 7.94 µM [falling, full curve]

CN(C)c1ccc(CN(CC2CCCO2)C(=O)COc2ccc(Cl)cc2)cc1 (stereo not drawn)
AC50 [1]: 12.6 µM [falling, partial curve]

CCc1ccc(-n2c(C)nc3cc(C(=O)NCCc4ccccc4)ccc32)cc1
AC50 [1]: 25.1 µM [falling, partial curve, poor fit]

COc1cccc(CN2C(=O)c3ccccc3C2C(=O)NCCc2ccc(OC)c(OC)c2)c1 (stereo not drawn)
AC50 [1]: 2 µM [rising, partial curve]

CC(=O)N1CCCc2cc(S(=O)(=O)N3CCCC(C(=O)NCc4ccc(Cl)cc4)C3)ccc21 (stereo not drawn)
AC50 [1]: 0.00794 µM [falling, full curve]

Cc1cc(O)c(C(c2cccc(Cl)c2)N2CCN(c3ccccc3)CC2)c(=O)n1Cc1ccco1 (stereo not drawn)
AC50 [1]: 1.58 µM [falling, full curve, poor fit]

CCc1cc(C(=O)Cc2cnn(-c3ccccc3)c2)c(O)cc1O
AC50 [2]: 39.8 µM [falling, single point]
AC50 [3]: 39.8 µM [falling, single point]

Cc1ccc(-c2nc3c4cnn(-c5cc(Cl)ccc5Cl)c4ncn3n2)cc1
AC50 [1]: 0.0158 µM [rising, full curve, poor fit]

CCOC(=O)c1c(NC(=O)c2ccco2)sc(C(=O)N2CCCC2)c1C
AC50 [1]: 0.0316 µM [rising, full curve, poor fit]

CC(C)Cc1nn2c(=O)cc(COC(=O)c3ccccc3NC(=O)c3ccccc3)nc2s1
AC50 [1]: 15.8 µM [falling, single point]
